Reference: PubChem BioAssay AID602196 (INSERM, 2012)
The whole screen tested about 23,000 reagents; shown is an unselected part. 455 of all reagents (2%) count as active. 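Active includes both protection and sensitisation; some change values fall well beyond the stated -50 to +50 range.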 Unmarked entries are inactive. The numbers tell different reagents against one gene apart. Further read-outs or replicates are left out here. The record does not give: the amount of reagent.

- Aim: 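Knock-downs that protect lung cancer cells from cisplatin or sensitise them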
- Cells: human A549 lung cancer cells
- Reagent: siRNA pair against human genes
- Duration: 48 h transfection before cisplatin; time from cisplatin to read-out not stated
- Challenge: cisplatin at a dose killing half of control-siRNA cells; exact dose and duration not given
- Read-out: 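Cisplatin cell death as a shift from the 50% death seen with control siRNA; siRNAs toxic or growth-blocking alone scored 0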
- Scale: two-siRNA summed score (-2 to +2): higher = both siRNAs protect from cisplatin killing; -2 means both sensitise; mean protection from cisplatin (shift in death): higher = protection from cisplatin killing
- Active means: 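siRNAs harmful alone (LDH or WST-1) get 0; others get +1 for less and -1 for more cisplatin killing; genes are active when the two siRNAs give the same sign, summing to ±2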
- Meaning of the calls: active = both siRNAs shift cisplatin killing the same way; inactive = no consistent shift, or siRNA harmful alone

MAB21L3 (mab-21 like 3) | two-siRNA summed score (-2 to +2): 1; mean protection from cisplatin (shift in death) (%): 3.3
EIF2B1 (eukaryotic translation initiation factor 2B subunit alpha) | two-siRNA summed score (-2 to +2): 0; mean protection from cisplatin (shift in death) (%): -3.8
LOC391817 | two-siRNA summed score (-2 to +2): 2 (active); mean protection from cisplatin (shift in death) (%): 13.4
RTN1 (reticulon 1) | two-siRNA summed score (-2 to +2): 1; mean protection from cisplatin (shift in death) (%): 12.1
RMDN3 (regulator of microtubule dynamics 3) | two-siRNA summed score (-2 to +2): 0; mean protection from cisplatin (shift in death) (%): 1.9
ZNF573 (zinc finger protein 573) | two-siRNA summed score (-2 to +2): 0; mean protection from cisplatin (shift in death) (%): 6.5
SLC30A5 | two-siRNA summed score (-2 to +2): 0; mean protection from cisplatin (shift in death) (%): 5.6
LRIG3 (leucine rich repeats and immunoglobulin like domains 3) | two-siRNA summed score (-2 to +2): 0; mean protection from cisplatin (shift in death) (%): 4.2
TMEM179 (transmembrane protein 179) | two-siRNA summed score (-2 to +2): 0; mean protection from cisplatin (shift in death) (%): 0.5
TSPOAP1 (TSPO associated protein 1) | two-siRNA summed score (-2 to +2): 0; mean protection from cisplatin (shift in death) (%): -7.6
SYCP2L (synaptonemal complex protein 2 like) | two-siRNA summed score (-2 to +2): 0; mean protection from cisplatin (shift in death) (%): 2.2
SMIM8 (small integral membrane protein 8) | two-siRNA summed score (-2 to +2): 0; mean protection from cisplatin (shift in death) (%): -3.8
TAF1A | two-siRNA summed score (-2 to +2): 0; mean protection from cisplatin (shift in death) (%): 7.8
R-SE10 | two-siRNA summed score (-2 to +2): 0; mean protection from cisplatin (shift in death) (%): 5.8
FLJ40712 (retired record) | two-siRNA summed score (-2 to +2): 0; mean protection from cisplatin (shift in death) (%): -1.4
TSPYL3 (TSPY like 3) | two-siRNA summed score (-2 to +2): 0; mean protection from cisplatin (shift in death) (%): 6.4
ING4 (inhibitor of growth family member 4) | two-siRNA summed score (-2 to +2): 0; mean protection from cisplatin (shift in death) (%): -6.1
TMEM98 (transmembrane protein 98) | two-siRNA summed score (-2 to +2): 0; mean protection from cisplatin (shift in death) (%): 1.5
EEF1E1 (eukaryotic translation elongation factor 1 epsilon 1) | two-siRNA summed score (-2 to +2): 0; mean protection from cisplatin (shift in death) (%): 4.9
ZNF343 (zinc finger protein 343) | two-siRNA summed score (-2 to +2): 0; mean protection from cisplatin (shift in death) (%): -9.6
NUP50 (nucleoporin 50) | two-siRNA summed score (-2 to +2): 0; mean protection from cisplatin (shift in death) (%): 1.5
SHLD2P1 (shieldin complex subunit 2 pseudogene 1) | two-siRNA summed score (-2 to +2): 0; mean protection from cisplatin (shift in death) (%): -2.2
TCTN3 (tectonic family member 3) #1 | two-siRNA summed score (-2 to +2): 0; mean protection from cisplatin (shift in death) (%): 3.6
TCTN3 (tectonic family member 3) #2 | two-siRNA summed score (-2 to +2): 0; mean protection from cisplatin (shift in death) (%): 11
CENPC (centromere protein C) | two-siRNA summed score (-2 to +2): 0; mean protection from cisplatin (shift in death) (%): 9.3
PTPRR (protein tyrosine phosphatase receptor type R) | two-siRNA summed score (-2 to +2): 0; mean protection from cisplatin (shift in death) (%): -16.4
MRPL50 (mitochondrial ribosomal protein L50) | two-siRNA summed score (-2 to +2): 0; mean protection from cisplatin (shift in death) (%): 9.7
MAP3K19 (mitogen-activated protein kinase kinase kinase 19) | two-siRNA summed score (-2 to +2): 0; mean protection from cisplatin (shift in death) (%): 4.6
LOC440533 | two-siRNA summed score (-2 to +2): 0; mean protection from cisplatin (shift in death) (%): 8.5
FARS2 (phenylalanyl-tRNA synthetase 2, mitochondrial) | two-siRNA summed score (-2 to +2): 0; mean protection from cisplatin (shift in death) (%): 0
CDC42BPG (CDC42 binding protein kinase gamma) | two-siRNA summed score (-2 to +2): 1; mean protection from cisplatin (shift in death) (%): 25.4

Hits (from the list above):
LOC391817 | two-siRNA summed score (-2 to +2): 2 (active); mean protection from cisplatin (shift in death) (%): 13.4
